Data as given in US20240415793A1, “Neuroprotective composition comprising pyruvate and citrate” (N.V. Nutricia, priority 2022, published 2024).
At least one structure is not confirmed: it was looked up by name or label, or the drawing left a doubt.

System: primary mouse neuroglial cultures
Experiment: Cell death by high content imaging (Hoechst/NeuN nuclear shrinkage) after chronic hyperstimulation
Assay type: cell-based
Conditions: 1 mM, DIV14-DIV17
Experimental: To determine whether pyruvate and citrate protect neurons and glial cells from cell death induced by chronic electrical hyperstimulation. To assess protection from cell death induced by repeated hyperstimulation, primary mouse neuroglial cultures were assayed. Neuroglial cell cultures were prepared and grown until DIV14 as described above. From DIV14 until DIV17 they were switched to NBM containing B27, low (2.5 mM) glucose, and low (0.1 mM) Mg^2+ or high (0.8 mM) Mg^2+. Incubation in low (0.1 mM) Mg^2+ medium increases the neuronal firing rates, thus creating a state of chronic hyperstimulation. The test nutrients (pyruvate or citrate) were supplied through the medium from DIV14 until DIV17. On DIV17, the cell nuclei were stained with the Hoechst dye and co-immunolabelled for NeuN, a protein found only in the nuclei of neurons. The neuronal and non-neuronal cell nuclei were scored for nuclear shrinkage, a hallmark of cell death, by high content imaging.
To assess cell death by high content imaging the cells were fixed on DIV17 in 1% formaldehyde, permeabilized with ethanol and incubated with a rabbit polyclonal IgG antibody against NeuN, a neuron-specific protein localized to the nucleus, followed by detection with a secondary anti-rabbit IgG antibody linked to a red fluorescent label. […] The nuclei were counted by a high content imager based on signal intensity and size. […]

CC(=O)C(=O)O [pyruvate]
effect on alive cell count (FIG. 10B/11B): not impacting | effect on rise in neuron death induced by chronic hyperstimulation (FIG. 10F/11F): blocked and even reduced
